Source: PubChem BioAssay AID493014 (National Center for Advancing Translational Sciences (NCATS), 2011)
The list shows a part of the results. These are further read-outs of the screen, such as a control signal, another cell line or another target. No call is given for them. Compounds called inactive in the main read-out are mostly missing here. Potencies come from curve fits of mixed quality, noted in brackets.

Test: qHTS Assay to Find Inhibitors of Chronic Active B-Cell Receptor Signaling
Conditions: ABC-DLBCL IkBa-CBG/CBR reporter, luminescence ratio (green luciferase fused to IkBa over red control in TMD8 lymphoma cells), 4 h
Text: NIH Molecular Libraries Probe Production Network [MLPCN] NIH Chemical Genomics Center [NCGC] MLPCN Grant: 1 R03 DA031086-01A1 PI Name: Dr. R. Eric Davis NCGC Assay Overview: Diffuse large B-cell lymphoma (DLBCL) is the most common category of non-Hodgkin lymphoma, with ~20,000 new cases per year in the United States. DLBCL should be regarded as a collection of different neoplasms. Microarray gene expression analysis has defined two principal types of DLBCL, named for their similarity to normal B cell stages or activation states: a germinal center B-cell (GCB) type, and an activated B-cell (ABC) type. In ABC-DLBCL, a constitutive high-level activity of the NF-kappaB family of transcription factors has been observed (1) and NF-kappaB target genes are more highly expressed in ABC primary tumors than in GCB tumors. Functional studies have shown a constitutive high-level activity of the IkappaB (inhibitor of kappa-B) kinase (IKK) complex. […] Further analysis of DLBCL primary tumors for NF-kappaB target gene expression imply that although CARD11 is required for constitutive IKK activity in all ABC-DLBCL lines, mutations in CARD11 may be the root cause of IKK activation only in lines or tumors with such mutations. In other words, CARD11 mutations may explain NF-kappaB activation in only 10% of ABC-DLBCL cases. […] This process has been termed 'chronic active BCR signaling' (CABS). The goal of this screen is to find small-molecule inhibitors of the CABS pathway found in ABC-DLBCL lines using a cell-based assay that measures IkappaBalpa stability, which has already been extensively validated in the OCI-Ly3 line (PubChem AID:445; REF: 4). […] The assay uses green (CBG68) and red (CBR) emitting beetle luciferases [Chroma-GloTM developed by Promega Corp.] where the green luciferase is fused to IkappaBalpha and the red luciferase is present in its native state. Both luciferase genes are stably present in the TMD8 human ABC DLBCL cell line, but their expression is under the control of tetracycline-inducible promoters. Following the addition of doxycycline to induce expression of the luciferases, the green luminescence in control cultures rises only slowly because the CBG fusion partner IkappaBalpha is targeted by IKK activity for rapid degradation. In contrast, green luminescence rises rapidly in the presence of proteasome inhibitors or IKK inhibitors. The rise in red luminescence of CBR is not affected by proteasome or IKK inhibitors, and serves as normalization for cell number and nonspecific effects. Compounds were screened as a concentration-titration series that ranged from 46 uM to 3 nM.
NCGC Assay Protocol Summary: Cells were seeded in 1536-well plates at 5000 cells/4uL in IMDM medium containing 0.5% FBS, w/o phenol red, 1% penicillin/streptomycin. Then, 23 nL of compounds or DMSO were delivered to each well using a pin tool. One uL 20ng/ml doxycycline was then dispensed into white solid 1536-well plates and the plates were incubated at 37C/5% C02 in a cell incubator for 4 hrs. Then 4 uL luminescent substrate mix (in-house prepared: 150 mM Tris-Cl, pH 7.6, 3 mM MgCl2, 1% Triton X-100, 5 mM DTT, 0.2 mM CoA, 0.15 mM ATP, 5 mM D-luciferin, final concentrations) was added to each well. The plate was incubated at r.t. for 10-15 min. The plates were measured on a ViewLux plate reader for green luminescence (540/20 nm filter) and red luminescence (618/8 nm filter). The green and red luminescent signals were corrected for red and green luminescence filter overlap using previously determined filter calibration constants (determined using the procedure outlined in the Promega Technical Manual; REF 4). The %Activity was determined from the ratio of corrected green/red luminescent values. MG132 were used as control. […] Red luminescent %Activity was normalized to the difference between red luminesence in basal cells (0%Activity) and zero luminescence (-100% Activity). […]

[1] = measured here: CBR red luminescence, cell number
[2] = measured here: IkBa-CBG green luminescence

Row | SMILES | AC50 [1] | AC50 [2]
1 | Nc1nnc(SCn2nnc3ccccc3c2=O)s1 | 17.8 µM [rising, single point] | 
2 | COc1ccc(NC(=O)c2oc3ccccc3c2CSC)cn1 | 7.08 µM [falling, partial curve, poor fit] | 
3 | NC(=O)c1cc2cc([N+](=O)[O-])ccc2oc1=O | 31.6 µM [rising, single point] | 
4 | CCN(c1ccccc1)S(=O)(=O)c1ccc(C(=O)N2CC(C)CC(C)C2)cc1 (configuration not stated) |  | 25.9 µM [rising, partial curve, poor fit]
5 | CCOc1ccc(OCc2cccc(C(=O)N/N=C/c3cccnc3)c2)cc1 | 0.116 µM [rising, full curve, poor fit] | 
6 | CCOc1ccc(C(=O)CCN2CCCCC2)cc1 | 17.8 µM [falling, partial curve] | 
7 | COc1ccc(NS(=O)(=O)c2cc(NC(=O)c3cc(F)c(F)cc3Cl)ccc2N2CCOCC2)cc1 | 23.1 µM [rising, single point] | 
8 | N#C/C(=C\c1ccncc1)c1nc2ccccc2c(=O)[nH]1 | 3.55 µM [falling, partial curve] | 
9 | O=C(N/N=C/c1cccnc1)c1cc2ccccc2cc1O | 35.5 µM [falling, single point] | 
10 | CCCCCn1c(N2CCC(C(N)=O)CC2)nc2c1c(=O)[nH]c(=O)n2C | 0.501 µM [rising, full curve, poor fit] | 
11 | COc1ccc(-c2c[n+](CC(=O)OC3CC(C)CCC3C(C)C)c3n2CCC3)cc1 (configuration not stated) | 12.6 µM [falling, partial curve] | 
12 | O=S(=O)(Nc1cc(Sc2cccc3cccnc23)c(O)c2ccccc12)c1ccccc1 | 29.1 µM [falling, single point] | 
13 | CCCOc1ccc(CCC(=O)O)cc1 | 6.31 µM [falling, single point] | 
14 | CC(C)(CNc1ccc(C(F)(F)F)cc1[N+](=O)[O-])N1CCOCC1 | 1.41 µM [rising, partial curve] | 
15 | Cc1cc(C)c(S(=O)(=O)Nc2ccccc2-c2ccccc2)c(C)c1 |  | 16.4 µM [rising, partial curve, poor fit]
16 | CCOC(=O)C1=C(C)NC(C)=C(C(=O)OCC)C1C(=O)OCC(=O)N1CC(C)OC(C)C1 (configuration not stated) | 20.6 µM [rising, single point] | 20.6 µM [falling, partial curve, poor fit]
17 | CN(C)S(=O)(=O)c1ccc(Cl)c(NC(=O)COC(=O)/C=C/c2cnc3ccccc3n2)c1 | 35.5 µM [rising, single point] | 
18 | CN(C)/C=C/C(=O)c1ccc2noc(-c3ccccc3)c2c1 | 10 µM [falling, partial curve] | 
19 | Nc1cccc2c1C(=O)N(Cc1nnc(-c3ccccc3Br)o1)C2=O | 1.41 µM [falling, full curve, poor fit] | 
20 | CCCOc1ccc(NC(=O)C2CCCNC2=O)cc1 (configuration not stated) | 7.31 µM [falling, partial curve] | 
21 | S=c1[nH]nc(COc2ccccc2)n1/N=C/c1ccccc1Cl | 35.5 µM [rising, single point] | 
22 | CC(=O)c1c(N2CCN(C)CC2)nc(=S)n(-c2cc(C)ccc2C)c1C | 11.2 µM [rising, partial curve] | 

Arranged by molar mass (rising): some entries from above
Row | SMILES | AC50 [1] | AC50 [2]
3 | NC(=O)c1cc2cc([N+](=O)[O-])ccc2oc1=O | 31.6 µM [rising, single point] | 
6 | CCOc1ccc(C(=O)CCN2CCCCC2)cc1 | 17.8 µM [falling, partial curve] | 
8 | N#C/C(=C\c1ccncc1)c1nc2ccccc2c(=O)[nH]1 | 3.55 µM [falling, partial curve] | 
18 | CN(C)/C=C/C(=O)c1ccc2noc(-c3ccccc3)c2c1 | 10 µM [falling, partial curve] | 
2 | COc1ccc(NC(=O)c2oc3ccccc3c2CSC)cn1 | 7.08 µM [falling, partial curve, poor fit] | 
21 | S=c1[nH]nc(COc2ccccc2)n1/N=C/c1ccccc1Cl | 35.5 µM [rising, single point] | 
15 | Cc1cc(C)c(S(=O)(=O)Nc2ccccc2-c2ccccc2)c(C)c1 |  | 16.4 µM [rising, partial curve, poor fit]
22 | CC(=O)c1c(N2CCN(C)CC2)nc(=S)n(-c2cc(C)ccc2C)c1C | 11.2 µM [rising, partial curve] | 
5 | CCOc1ccc(OCc2cccc(C(=O)N/N=C/c3cccnc3)c2)cc1 | 0.116 µM [rising, full curve, poor fit] | 
19 | Nc1cccc2c1C(=O)N(Cc1nnc(-c3ccccc3Br)o1)C2=O | 1.41 µM [falling, full curve, poor fit] | 
11 | COc1ccc(-c2c[n+](CC(=O)OC3CC(C)CCC3C(C)C)c3n2CCC3)cc1 (configuration not stated) | 12.6 µM [falling, partial curve] | 
16 | CCOC(=O)C1=C(C)NC(C)=C(C(=O)OCC)C1C(=O)OCC(=O)N1CC(C)OC(C)C1 (configuration not stated) | 20.6 µM [rising, single point] | 20.6 µM [falling, partial curve, poor fit]
12 | O=S(=O)(Nc1cc(Sc2cccc3cccnc23)c(O)c2ccccc12)c1ccccc1 | 29.1 µM [falling, single point] | 
17 | CN(C)S(=O)(=O)c1ccc(Cl)c(NC(=O)COC(=O)/C=C/c2cnc3ccccc3n2)c1 | 35.5 µM [rising, single point] | 
7 | COc1ccc(NS(=O)(=O)c2cc(NC(=O)c3cc(F)c(F)cc3Cl)ccc2N2CCOCC2)cc1 | 23.1 µM [rising, single point] | 

Going on with the list:

Row | SMILES | AC50 [1] | AC50 [2]
23 | COc1ccc(N2CCN(C(=O)c3cc(=O)c4cc(C)c(C)cc4o3)CC2)cc1 | 3.98 µM [rising, full curve, poor fit] | 
24 | Cc1nn(Cc2ccccc2)c(C)c1NC(=O)CSc1nnc(-c2cc(Cl)ccc2O)n1C | 0.461 µM [falling, full curve, poor fit] | 
25 | COc1ccc(-c2cc(C#N)nc(NN)n2)cc1 | 6.31 µM [falling, single point] | 
26 | O=C(O)CC(NCc1ccco1)C(=O)OCC1CCCO1 (configuration not stated) | 35.5 µM [rising, single point] | 
27 | CCOc1ccc(NC(=O)CSC2=C(C#N)C(c3ccc4c(c3)OCO4)CC(=O)N2)cc1 (configuration not stated) | 7.31 µM [rising, partial curve, poor fit] | 
28 | Cc1ccccc1OCC(=O)NNC(=O)c1ccc2c(=O)n3c(nc2c1)CCC3 | 0.651 µM [falling, partial curve, poor fit] | 23.1 µM [rising, partial curve, poor fit]
29 | COc1cc(OC)cc(-c2sc3ccc(OC)cc3c2-c2ccc3cc[nH]c3c2)c1 | 29.1 µM [rising, single point] | 
30 | CCOC(=O)C1=C(C)NC(C)=C(C(=O)OCC)C1C | 18.4 µM [rising, partial curve, poor fit] | 
31 | Cc1cccnc1NC(=O)c1ccc2c(c1)NC(=O)C(C)S2 (configuration not stated) | 5.8 µM [falling, partial curve] | 
32 | S=C(Nc1ccc(Cl)c(Cl)c1)NC1CCN(Cc2ccccc2)CC1 | 6.51 µM [falling, partial curve, poor fit] | 
33 | COc1cccc(N2CCN(c3ncnc4c3[nH]c3ccccc34)CC2C)c1 (configuration not stated) | 13 µM [falling, partial curve] | 20.6 µM [rising, single point]
34 | O=C1CCCN1c1ccc(S(=O)(=O)Oc2ccc(Cl)cc2)cc1[N+](=O)[O-] | 25.1 µM [falling, single point] | 
35 | O=C(O)c1csc(N/N=C/c2ccc(Br)cc2)n1 | 22.4 µM [falling, single point] | 
36 | COc1cc2nc(CN3CCN(S(=O)(=O)c4c(F)cccc4F)CC3)[nH]c(=O)c2cc1OC | 14.6 µM [rising, partial curve, poor fit] | 
37 | NC(N)=N/N=C/c1ccc(Cl)cc1Cl | 11.2 µM [falling, partial curve, poor fit] | 
38 | Oc1ccc(/C=N/NC2=NCCCCC2)c(O)c1 | 14.6 µM [falling, single point] | 
39 | O=C(NNC(=O)c1cc2cc(OC(F)(F)F)ccc2[nH]1)c1ccc(Cl)cc1 | 2.51 µM [rising, full curve] | 
40 | CC(C)OC(=O)/C(=C/c1ccc(Br)cc1)NC(=O)c1ccco1 | 32.6 µM [rising, partial curve, poor fit] | 
41 | CCOC(=O)c1sc(NNC(=O)c2ccc(C)cc2)nc1C | 5.62 µM [rising, single point] | 
42 | CCc1ccccc1OCC(=O)Nc1cccc(S(=O)(=O)NCc2ccco2)c1 | 5.8 µM [falling, partial curve] | 
43 | COc1ccc(S(=O)(=O)N2CCOC2CNC(=O)C(=O)NCCCN2CCOCC2)cc1 (configuration not stated) | 12.6 µM [rising, partial curve, poor fit] | 
44 | COc1ccc(C(=O)N/N=C(\C)CC(=O)Nc2ccc(Cl)cn2)cc1 | 7.08 µM [falling, partial curve, poor fit] | 

Row | SMILES | AC50 [1] | AC50 [2]
45 | C/C(=N\NC(=O)c1cccs1)c1ccc(C(=O)O)s1 | 10 µM [falling, partial curve, poor fit] | 
46 | COCCOC(=O)C1=C(C)N=C2SCCC(=O)N2C1/C=C/c1ccccc1 (configuration not stated) | 3.55 µM [rising, single point] | 
47 | CC1(C)CC2CC(C)(CN2C(=O)COC(=O)c2cccc([N+](=O)[O-])c2)C1 (configuration not stated) | 6.51 µM [rising, single point] | 
48 | c1ccc(CNc2ccc(N3CCOCC3)cc2)cc1 | 0.58 µM [rising, full curve, poor fit] | 
49 | CC(C)CCNC(=O)CCS(=O)(=O)c1cccc2nonc12 | 6.51 µM [falling, single point] | 
50 | COc1ccccc1OCC(=O)Nc1ccc(S(=O)(=O)Nc2cc(C)nc(C)n2)cc1 | 0.92 µM [rising, full curve, poor fit] | 
51 | O=C(NCCSCc1ccc(Cl)cc1Cl)c1ccc(CN2CCOCC2)cc1 | 6.31 µM [rising, single point] | 
52 | O=C(NC(=S)NC1CCCc2ccccc21)c1ccco1 (configuration not stated) | 17.8 µM [rising, single point] | 
53 | O=C(Nc1ccc(NC(=O)C2CCCCC2)nc1)c1cccc(F)c1 | 6.31 µM [rising, single point] | 
54 | COc1ccc(/C=C/C(=O)Oc2cccc(/C=N/NC(=O)Cc3ccc(Br)cc3)c2)cc1 | 22.4 µM [rising, single point] | 
55 | CCSc1nnc(NC(=O)CSc2nnc(Cc3cccn3C)n2-c2ccc(C)cc2)s1 | 18.4 µM [falling, single point] | 
56 | COc1ccc2c(CC(=O)OCC(=O)Nc3ccc4c(c3)OCO4)coc2c1 | 29.1 µM [rising, single point] | 
57 | Cc1csc(NC(=O)CCc2c(C)nc3cc(-c4ccc(Cl)cc4)nn3c2C)n1 | 0.184 µM [falling, partial curve] | 
58 | CCC(CC)C(=O)c1c[nH]c(C(=O)NCCOC)c1 | 20 µM [rising, single point] | 
59 | OCC(Cc1ccccc1)Nc1c2ccccc2nc2ccccc12 (configuration not stated) | 29.1 µM [falling, single point] | 
60 | Cc1cccc(NC(=O)c2cc(S(=O)(=O)NCc3ccco3)ccc2F)c1C | 17.8 µM [falling, single point] | 
61 | COc1ccc(-c2nnc(SCC(=O)Nc3cc(C)on3)o2)cc1 |  | 22.4 µM [falling, single point]
62 | COc1cc(/C=N/N=C2/NC(=O)C(Cc3ccc(F)cc3)S2)ccc1O (configuration not stated) | 2.82 µM [falling, partial curve] | 
63 | Cc1ccc2c(C)nc(Nc3nc(CSc4nc5ccccc5[nH]4)cc(=O)[nH]3)nc2c1 | 2.24 µM [falling, full curve, poor fit] | 
64 | CC1=CC(C)C2C(=O)N(CCCN(C)C)C(=O)C2C1 (configuration not stated) | 4.61 µM [rising, full curve, poor fit] | 
